{"source": "PubChem BioAssay AID1224826 (NIAID, 2016)", "aim": "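Regulators of Tlr4 signalling leading to Tnf-alpha expression in macrophages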 (primary screen)", "cell system": "RAW264.7 G9 macrophages from mouse bearing reporters for p65 (GFP) and the Tnf promoter (mCherry)", "reagent": "siRNA pool against mouse genes, 100 nM", "duration": "16 h of LPS stimulation, after 2 days of siRNA transfection", "challenge": "bacterial lipopolysaccharide (Salmonella minnesota R595), 10 ng/ml", "read-out": "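Imaged Tnf reporter mCherry in nuclei, minus background, normalised per plate to the median and expressed as robust z-scores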", "direction": "Tnf reporter robust z-score: higher = stronger Tnf promoter reporter signal after LPS", "active means": "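a well counts as active at a score of -1.3 or below (Tlr4 knock-down control median) or above 3 (raised signal); controls and wells holding fewer than 50 cells are excluded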", "meaning of the calls": "active = Tnf reporter clearly lowered or raised; inactive = no clear change in Tnf reporter", "note": "Shown is an unselected part of about 17,000 reagents tested. Of all reagents, about 1,110 (6.6%) got an active call. 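Active means lowered or raised reporter signal; replicate intensities are raw and not normalised per plate.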 Further read-outs or replicates are left out here."}
{"Gene": "Cd38 (CD38 antigen)", "Tnf reporter robust z-score": 0.9, "fewer than 50 cells in well": "enough cells in well", "outcome": "inactive"}
{"Gene": "Mbtps2 (membrane-bound transcription factor peptidase, site 2)", "Tnf reporter robust z-score": 0.92, "fewer than 50 cells in well": "enough cells in well", "outcome": "inactive"}
{"Gene": "Trhde (TRH-degrading enzyme)", "Tnf reporter robust z-score": -0.89, "fewer than 50 cells in well": "enough cells in well", "outcome": "inactive"}
{"Gene": "Lypd4 (Ly6/Plaur domain containing 4)", "Tnf reporter robust z-score": -1.02, "fewer than 50 cells in well": "enough cells in well", "outcome": "inactive"}
{"Gene": "Trim25 (tripartite motif-containing 25)", "Tnf reporter robust z-score": 2.66, "fewer than 50 cells in well": "enough cells in well", "outcome": "inactive"}
{"Gene": "Crocc (ciliary rootlet coiled-coil, rootletin)", "Tnf reporter robust z-score": -1.23, "fewer than 50 cells in well": "enough cells in well", "outcome": "inactive"}
{"Gene": "Ccnb3 (cyclin B3)", "Tnf reporter robust z-score": 0.4, "fewer than 50 cells in well": "enough cells in well", "outcome": "inactive"}
{"Gene": "Pold1 (polymerase (DNA directed), delta 1, catalytic subunit)", "Tnf reporter robust z-score": -0.66, "fewer than 50 cells in well": "enough cells in well", "outcome": "inactive"}
{"Gene": "Nudcd2 (NudC domain containing 2)", "Tnf reporter robust z-score": -0.44, "fewer than 50 cells in well": "enough cells in well", "outcome": "inactive"}
{"Gene": "Cacna1f (calcium channel, voltage-dependent, alpha 1F subunit)", "Tnf reporter robust z-score": -0.93, "fewer than 50 cells in well": "enough cells in well", "outcome": "inactive"}
{"Gene": "Hsd17b12 (hydroxysteroid (17-beta) dehydrogenase 12)", "Tnf reporter robust z-score": -0.26, "fewer than 50 cells in well": "enough cells in well", "outcome": "inactive"}
{"Gene": "Slc16a3", "Tnf reporter robust z-score": 1.01, "fewer than 50 cells in well": "enough cells in well", "outcome": "inactive"}
{"Gene": "Exosc2 (exosome component 2)", "Tnf reporter robust z-score": 1.46, "fewer than 50 cells in well": "enough cells in well", "outcome": "inactive"}
{"Gene": "Sytl5 (synaptotagmin-like 5)", "Tnf reporter robust z-score": -1.79, "fewer than 50 cells in well": "enough cells in well", "outcome": "active"}

Records above whose gene name starts with C or c (4):
{"Gene": "Cd38 (CD38 antigen)", "Tnf reporter robust z-score": 0.9, "fewer than 50 cells in well": "enough cells in well", "outcome": "inactive"}
{"Gene": "Crocc (ciliary rootlet coiled-coil, rootletin)", "Tnf reporter robust z-score": -1.23, "fewer than 50 cells in well": "enough cells in well", "outcome": "inactive"}
{"Gene": "Ccnb3 (cyclin B3)", "Tnf reporter robust z-score": 0.4, "fewer than 50 cells in well": "enough cells in well", "outcome": "inactive"}
{"Gene": "Cacna1f (calcium channel, voltage-dependent, alpha 1F subunit)", "Tnf reporter robust z-score": -0.93, "fewer than 50 cells in well": "enough cells in well", "outcome": "inactive"}

The list goes on:
{"Gene": "Pbdc1 (polysaccharide biosynthesis domain containing 1)", "Tnf reporter robust z-score": -0.73, "fewer than 50 cells in well": "enough cells in well", "outcome": "inactive"}
{"Gene": "Cfap61 (cilia and flagella associated protein 61)", "Tnf reporter robust z-score": -0.26, "fewer than 50 cells in well": "enough cells in well", "outcome": "inactive"}
{"Gene": "Haspin (histone H3 associated protein kinase)", "Tnf reporter robust z-score": 0.61, "fewer than 50 cells in well": "enough cells in well", "outcome": "inactive"}
{"Gene": "Hint3 (histidine triad nucleotide binding protein 3)", "fewer than 50 cells in well": "fewer than 50 cells per well; well left out of calls", "outcome": "inactive"}
{"Gene": "Zfyve27 (zinc finger, FYVE domain containing 27)", "Tnf reporter robust z-score": 1.05, "fewer than 50 cells in well": "enough cells in well", "outcome": "inactive"}
{"Gene": "Ccdc178 (coiled coil domain containing 178)", "fewer than 50 cells in well": "fewer than 50 cells per well; well left out of calls", "outcome": "inactive"}
{"Gene": "Rpl38 (ribosomal protein L38)", "Tnf reporter robust z-score": -0.6, "fewer than 50 cells in well": "enough cells in well", "outcome": "inactive"}
